The source of these data is publication PMC4621994 (British Journal of Pharmacology, 2015).

In this assay the target is native GABAA receptors in hippocampal neurons. Kind of assay: GABA-evoked currents in cultured hippocampal neurons, perforated patch. The format is cell-based, rat. The note with it: read-out: GABA EC50, solvent, Hippocampus neurons.

Molecules are shown by their SMILES. Where two headings read alike, the source gives them in different places.

Broadly, the EC50 is the concentration that produces a half-maximal response. On to `NCCCC(=O)O` [GABA], for which the concentration giving a half-maximal response (EC50) was 1.8 ± 0.2 µM (5 mM penicillin present, solvent) and 9.4 ± 1 µM (solvent (0.1% DMSO)).
